Experimental findings from publication PMC6085347, “Structural basis for reactivating the mutant TERT promoter by cooperative binding of p52 and ETS1” (Nature Communications, 2018) are described below.

For part of these data: Negatives hold for the conditions tested. Tags and fusion partners may be left off the protein sequences shown. For part of these data: Construct, isoform or probe ends are uncertain for at least one entry. For part of these data: The comparison behind a weaker result is the experiment's own reference, which may not be listed here. For part of these data: At least one verdict rests on a figure or table, not on a statement of the authors.

The target in one data set is T1, ETS1 296-441 (human) (UniProt P14921).
T1 sequence (looked up): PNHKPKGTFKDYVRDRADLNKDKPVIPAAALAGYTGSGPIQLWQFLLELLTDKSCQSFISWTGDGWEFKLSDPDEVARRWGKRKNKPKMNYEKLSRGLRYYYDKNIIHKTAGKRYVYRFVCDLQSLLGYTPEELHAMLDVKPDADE
Kind of data set: ITC. The following applies: no p52, weaker than with p52-DSD; ITC: 25 mM Tris-HCl pH 7.5, 200 mM NaCl, 3 mM TCEP, 8 °C; recombinant protein; residues 296-441; protein details: GST removed (PreScission, pGEX-6P-1).

The next data set deals with T2, p52-RHD (human) (UniProt Q00653).
T2 sequence (looked up): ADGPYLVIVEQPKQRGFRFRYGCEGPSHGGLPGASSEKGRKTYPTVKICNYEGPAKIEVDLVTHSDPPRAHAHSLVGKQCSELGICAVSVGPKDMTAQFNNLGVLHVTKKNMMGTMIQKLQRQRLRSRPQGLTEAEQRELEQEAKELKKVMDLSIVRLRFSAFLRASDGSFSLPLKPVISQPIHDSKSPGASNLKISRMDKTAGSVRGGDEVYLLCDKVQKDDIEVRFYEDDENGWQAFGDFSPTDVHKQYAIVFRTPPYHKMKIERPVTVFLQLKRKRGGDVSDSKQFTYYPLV
Kind of data set: ITC. The following applies: no ETS1, nearly negligible binding; ITC: 25 mM Tris-HCl pH 7.5, 200 mM NaCl, 3 mM TCEP, 8 °C; recombinant protein; residues 35-329; protein details: GST removed (PreScission, pGEX-6P-1).

Consider “CCCTTCCGGG (double strand) [10 bp -146C>T TERT promoter DNA]”, for which the binding result in the data set with ETS1 296-441 (human) is “binds more weakly”. As for “GTCCCGACCCCTTCCGGGTCCCCGGC / CGCCGGGGACCCGGAAGGGGTCGGGA [25 bp -146C>T TERT promoter DNA]”, the binding result was “no binding” with p52-RHD (human) and “binds more weakly” with ETS1 296-441 (human).
